The values that follow come from paper PMC11993459.

Amino acid sequences for entries named in this document (tags omitted).
UniProt Q96AC1: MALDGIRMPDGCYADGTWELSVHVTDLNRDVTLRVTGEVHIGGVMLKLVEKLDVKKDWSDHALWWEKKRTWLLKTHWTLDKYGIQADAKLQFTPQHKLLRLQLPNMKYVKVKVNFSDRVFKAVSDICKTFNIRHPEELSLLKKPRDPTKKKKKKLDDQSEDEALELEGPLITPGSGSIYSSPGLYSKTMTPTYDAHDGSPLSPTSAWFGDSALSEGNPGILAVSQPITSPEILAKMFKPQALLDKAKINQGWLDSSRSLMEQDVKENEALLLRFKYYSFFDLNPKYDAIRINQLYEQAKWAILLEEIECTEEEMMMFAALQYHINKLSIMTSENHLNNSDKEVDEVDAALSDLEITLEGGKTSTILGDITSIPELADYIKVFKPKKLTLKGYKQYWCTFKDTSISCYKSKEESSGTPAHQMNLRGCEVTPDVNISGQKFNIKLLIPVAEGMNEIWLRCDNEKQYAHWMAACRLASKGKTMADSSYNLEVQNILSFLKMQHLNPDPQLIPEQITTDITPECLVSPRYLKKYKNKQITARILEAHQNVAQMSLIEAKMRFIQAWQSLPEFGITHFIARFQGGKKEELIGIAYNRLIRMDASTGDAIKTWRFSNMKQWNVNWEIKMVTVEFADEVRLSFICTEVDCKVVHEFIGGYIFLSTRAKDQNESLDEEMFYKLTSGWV
UniProt P48431: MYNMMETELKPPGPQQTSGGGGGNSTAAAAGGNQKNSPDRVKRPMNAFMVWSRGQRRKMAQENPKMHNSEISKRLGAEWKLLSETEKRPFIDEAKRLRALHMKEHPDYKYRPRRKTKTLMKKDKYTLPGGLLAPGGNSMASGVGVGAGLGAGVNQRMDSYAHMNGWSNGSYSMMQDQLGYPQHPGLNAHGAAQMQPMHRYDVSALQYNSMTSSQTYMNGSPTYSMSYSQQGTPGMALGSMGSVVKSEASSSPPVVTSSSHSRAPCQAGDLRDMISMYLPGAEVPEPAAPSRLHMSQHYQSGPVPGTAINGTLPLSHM

No constants are given. Whether binding was seen depends on the method and setting. Binding seen in cells or lysates may run through a third protein. Some results given as binding are weak or reduced against the parent protein; the word gives no strength.

The target of the assay is Fermitin family homolog 2 (FERMT2) (human (endogenous in HGC-27)) (UniProt Q96AC1). Put plainly: co-IP; whole-cell protein of HGC-27 cells extracted with RIPA buffer, incubated overnight at 4 °C with Protein A + G magnetic beads and the corresponding antibody; co-precipitated proteins analysed by Western blotting. A general note: A western blot detects proteins with antibodies after separation by electrophoresis.

Consider “SRY (sex determining region Y)-box 2 (SOX2) (from UniProt P48431 1-317)”, for which the binding entry is given as “binds”.
